According to patent US20060210977:
For at least one entry, the source does not settle the construct or the ends of the probe. Protein sequences can lack the tags named with them.

Target: T1, Leu3p DNA binding domain (Saccharomyces cerevisiae) (UniProt P08638)
T1 sequence (looked up): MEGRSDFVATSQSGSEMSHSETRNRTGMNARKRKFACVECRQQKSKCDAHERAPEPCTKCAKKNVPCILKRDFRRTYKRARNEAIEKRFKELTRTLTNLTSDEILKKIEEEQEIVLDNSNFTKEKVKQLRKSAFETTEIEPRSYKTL
Assay: binding assay
Conditions: CITED Hellauer et al. 1996; binds in vitro; purified recombinant protein

TCCGGCCGGAACCGGCTTT (double strand) [Leu3p target DNA]
binding result: binds
